Experimental data from US20240409637A1.
No constants are given. Whether binding was seen depends on the method and setting. Some results given as binding are weak or reduced against the parent protein; the word gives no strength.

Sequences of proteins named here, by UniProt entry; tags and fusion partners are left off. A change or cut given only in a name is not applied to a line headed by its entry.
UniProt P01732: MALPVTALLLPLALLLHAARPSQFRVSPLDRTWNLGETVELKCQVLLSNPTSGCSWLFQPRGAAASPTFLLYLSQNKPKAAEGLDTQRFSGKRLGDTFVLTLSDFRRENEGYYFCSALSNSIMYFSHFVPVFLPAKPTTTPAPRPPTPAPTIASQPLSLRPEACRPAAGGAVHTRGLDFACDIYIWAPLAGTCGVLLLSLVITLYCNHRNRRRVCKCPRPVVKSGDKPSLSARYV

Target: human CD8α subunit (human) (UniProt P01732)
Assay: Biacore and ELISA

- binding: binds
B1: mAb1 (anti-CD8 monoclonal antibody) (antibody, V domains shown)
VH: QVQLVESGGGVDQPGRSLRLSCAASGFIFSNYGIHWVRQAPGKGLEWVAVIWYDGSNKYFEDSVKGRFNISRDNSKNIVYLQMNSLRAEDTAVYFCARSYDMLTGSGDYYGLDVWGQGTTVTVSS
VL: DIQMTQSPSSLSASVGDRVTITCRASQDITNYLAWFQQKPGKAPKSLIYGASSLQSGVPSKFSGSGSGTDFTLTISSLQPEDFATYYCQQYNNYPLTFGGGTKVEIK
